Results reported in PubChem BioAssay AID248 (DTP/NCI, 2004).
The list is a part of this screen's results and no random one: it is rich in T/C values a quarter to a half above the control, in often repeated tests (any T/C) and in doses without a T/C. Further doses and runs are listed elsewhere. T/C: endpoint of the treated group in % of that of the vehicle group. Some entries give survivors of the animals treated and no T/C: the source holds a T/C of zero for them, seemingly a mark for toxic or unscored doses. Some doses without a T/C left all or most animals alive at the check, yet need not have been tolerated: the source hardly ever lists a survival T/C far under the control, and the zero likely stands for such cases as well. Survivors were counted at the toxicity check, usually on the fifth day, unless a day is given; later deaths do not show. Schedule codes are those of the source, taken here to give the interval after Q, in days (D) or hours (H), and the number of doses after X. Some schedules carry Z or #; the key to these is not given. Brackets with × stand for listed records that agree. Some entries were tested several times; the values are given in rising order. For survival time, the PubChem record calls one and a half times the control and up active, and a quarter to a half above the control has no call in these data; cut-offs in other NCI protocols can differ. Some T/C values carry the count of animals alive at the toxicity check (mostly the fifth day); without a count, all were alive then.

System: L1210 leukemia ip in BDF1 mice, survival T/C
Assay: NCI In Vivo Anticancer Drug Screen. Data for tumor model L1210 Leukemia (intraperitoneal) in B6D2F1 (BDF1) mice
Conditions: T/C endpoint: mean survival time, higher T/C = longer survival
[1] = dose: 100.0 mg/kg/injection, schedule: Q01DX001 (ip), vehicle: carboxymethylcellulose (CMC)
[2] = dose: 100.0 mg/kg/injection, schedule: Q04DX003 (ip), vehicle: Klucel (hydroxypropylcellulose) (HPC)
[3] = dose: 200.0 mg/kg/injection, schedule: Q04DX003 (ip), vehicle: Klucel (hydroxypropylcellulose) (HPC)
[4] = dose: 400.0 mg/kg/injection, schedule: Q04DX003 (ip), vehicle: Klucel (hydroxypropylcellulose) (HPC)
[5] = dose: 400.0 mg/kg/injection, schedule: Q01DX001 (ip), vehicle: saline
[6] = dose: 400.0 mg/kg/injection, schedule: Q04DX003 (ip), vehicle: saline
[7] = dose: 200.0 mg/kg/injection, schedule: Q01DX009 (ip), vehicle: saline
[8] = dose: 150.0 mg/kg/injection, schedule: Q01DX001 (ip), vehicle: saline

Cc1cc[n+]2cc3c(ccc4ccccc43)c(C)c2c1
survivor count (dose: 32.0 mg/kg/injection, schedule: Q01DX015 (ip), vehicle: carboxymethylcellulose (CMC)): 4 of 6 | survivor count (dose: 50.0 mg/kg/injection, schedule: Q01DX001 (ip), vehicle: carboxymethylcellulose (CMC)): 2 of 4 | survivor count (dose: 64.0 mg/kg/injection, schedule: Q01DX015 (ip), vehicle: carboxymethylcellulose (CMC)): 0 of 6 | survivor count [1]: 0 of 4 | survivor count (dose: 200.0 mg/kg/injection, schedule: Q01DX001 (ip), vehicle: carboxymethylcellulose (CMC)): 0 of 4

CCCCCCCCCCCC(=O)NC(=S)Nc1cc([N+](=O)[O-])ccc1Cl
survivor count [2]: 6 of 6 | survivor count [3]: 6 of 6 | survivor count [4]: 6 of 6

O=C(O)c1ccccc1C(=O)OC1CC2C=CC1C21CC1 (stereo unspecified)
T/C [2]: 125 % of control [5 of 6 alive] | survivor count (dose: 400.0 mg/kg/injection, schedule: Q01DX009 (ip), vehicle: Klucel (hydroxypropylcellulose) (HPC)): 0 of 6 | survivor count [4]: 1 of 6

CCN(CCCCO)CCc1c[nH]c2ccc(OC)cc12
survivor count (dose: 150.0 mg/kg/injection, schedule: Q04DX003 (ip), vehicle: saline): 1 of 4 | survivor count (dose: 300.0 mg/kg/injection, schedule: Q01DX009 (ip), vehicle: saline): 0 of 6 | survivor count (dose: 300.0 mg/kg/injection, schedule: Q04DX003 (ip), vehicle: saline): 0 of 4

Cc1c(/C=N/N=c2/[nH][nH]/c(=N/N=C/c3c(C)n(C)n(-c4ccccc4)c3=O)c3ccccc23)c(=O)n(-c2ccccc2)n1C
survivor count [5]: 1 of 4

Cc1cc(N(CCOS(C)(=O)=O)CCOS(C)(=O)=O)ccc1C=Nc1cc(Cl)c(O)c(Cl)c1
survivor count [2]: 6 of 6 | survivor count [3]: 6 of 6 | survivor count [4]: 1 of 6

O=C1C2C(C(=O)N1c1ccc(O)cc1)C1c3ccccc3C2C2CCCCN21 (stereo unspecified)
survivor count (dose: 200.0 mg/kg/injection, schedule: Q04DX003 (ip), vehicle: saline): 2 of 6 | survivor count [6]: 0 of 6

O=[N+]([O-])c1cc([N+](=O)[O-])cc(S(=O)(=O)O)c1
survivor count [7]: 1 of 6 | survivor count (dose: 400.0 mg/kg/injection, schedule: Q01DX009 (ip), vehicle: saline): 0 of 6 | survivor count [6]: 2 of 6

O=[N+]([O-])c1ccc(C(F)(F)F)cc1
survivor count (dose: 200.0 mg/kg/injection, schedule: Q01DX009 (ip), vehicle: other): 4 of 6

Cc1[nH]c(=S)[nH]c(=O)c1CC(O)c1ccccc1 (stereo unspecified)
survivor count [3]: 6 of 6

CC(C)(CNC1CCCC1)OC(=O)c1ccccc1
survivor count [8]: 1 of 6 | survivor count (dose: 300.0 mg/kg/injection, schedule: Q01DX001 (ip), vehicle: saline): 0 of 6 (2×)

C=CCCCCCCC=C
survivor count [1]: 4 of 4

O=C(Nc1cc(C2=NCCN2)cc(C2=NCCN2)c1)c1ccc(C(=O)Nc2cc(C3=NCCN3)cc(C3=NCCN3)c2)cc1
survivor count (dose: 8.0 mg/kg/injection, schedule: Q01DX Z (ip), vehicle: carboxymethylcellulose (CMC)): 6 of 6 | survivor count (dose: 15.0 mg/kg/injection, schedule: Q01DX Z (ip), vehicle: methylcellulose (MC)): 0 of 6 | survivor count (dose: 30.0 mg/kg/injection, schedule: Q01DX Z (ip), vehicle: methylcellulose (MC)): 0 of 6 | survivor count (dose: 60.0 mg/kg/injection, schedule: Q01DX Z (ip), vehicle: methylcellulose (MC)): 0 of 6 | survivor count (dose: 120.0 mg/kg/injection, schedule: Q01DX Z (ip), vehicle: methylcellulose (MC)): 0 of 6

COC(OC)c1[nH]c(=S)[nH]c(=O)c1Cc1cccc(Cl)c1
survivor count [7]: 6 of 6

Cc1ccc(SC2=C(Sc3ccc(C)cc3)C(=O)c3ccccc3C2=O)cc1
survivor count (dose: 100.0 mg/kg/injection, schedule: Q01DX009 (ip), vehicle: saline with Tween-80): 6 of 6 | survivor count (dose: 200.0 mg/kg/injection, schedule: Q01DX009 (ip), vehicle: saline with Tween-80): 6 of 6 | survivor count (dose: 400.0 mg/kg/injection, schedule: Q01DX009 (ip), vehicle: saline with Tween-80): 6 of 6

CCOC(=O)C(C(=O)OCC)c1nc(=O)[nH]c(=O)[nH]1
survivor count (dose: 200.0 mg/kg/injection, schedule: Q01DX Z (ip), vehicle: methylcellulose (MC)): 1 of 6

CCN(CC)P(=O)(N1CC1C)N1CC1C (stereo unspecified)
T/C (dose: 12.5 mg/kg/injection, schedule: Q01DX009 (ip), vehicle: saline): 128 % of control | T/C (dose: 15.0 mg/kg/injection, schedule: Q01DX015 (ip), vehicle: saline): 135 % of control | T/C (dose: 22.0 mg/kg/injection, schedule: Q01DX009 (ip), vehicle: saline): 126 % of control | T/C (dose: 22.0 mg/kg/injection, schedule: Q01DX015 (ip), vehicle: saline): 130 % of control | T/C (dose: 25.0 mg/kg/injection, schedule: Q01DX009 (ip), vehicle: saline): 147 % of control | T/C (dose: 33.0 mg/kg/injection, schedule: Q01DX009 (ip), vehicle: saline): 149 % of control | T/C (dose: 44.0 mg/kg/injection, schedule: Q01DX001 (ip), vehicle: saline): 127 % of control | T/C (dose: 66.0 mg/kg/injection, schedule: Q01DX001 (ip), vehicle: saline): 132 % of control | T/C (dose: 66.6 mg/kg/injection, schedule: Q01DX001 (ip), vehicle: saline): 127 % of control [5 of 6 alive] | T/C (dose: 100.0 mg/kg/injection, schedule: Q01DX001 (ip), vehicle: saline, evaluated on day 30): 137 % of control | T/C (dose: 100.0 mg/kg/injection, schedule: Q01DX001 (ip), vehicle: saline, run until all animals had died): 139, 148, 150 % of control [5 of 6 alive] | survivor count (dose: 100.0 mg/kg/injection, schedule: Q01DX009 (ip), vehicle: saline): 5 of 6 | survivor count (dose: 110.0 mg/kg/injection, schedule: Q01DX009 (ip), vehicle: saline): 5 of 6 | survivor count [8]: 2 of 6 and 3 of 6 | survivor count (dose: 170.0 mg/kg/injection, schedule: Q01DX009 (ip), vehicle: saline): 2 of 6 | survivor count (dose: 200.0 mg/kg/injection, schedule: Q01DX001 (ip), vehicle: saline): 5 of 6 | survivor count [5]: 2 of 6

CCCCCCCCCCCC1=C(O)C(=O)C(CC2=C(O)C(=O)C(CCCCCCCCCCC)=C(O)C2=O)=C(O)C1=O
survivor count [1]: 4 of 4

CC(=O)[O][Hg][c]1c(N)c(Cl)cc(C)c1F
survivor count (dose: 40.0 mg/kg/injection, schedule: Q01DX001 (ip), vehicle: Klucel (hydroxypropylcellulose) (HPC)): 0 of 6 | survivor count (dose: 100.0 mg/kg/injection, schedule: Q01DX001 (ip), vehicle: Klucel (hydroxypropylcellulose) (HPC)): 0 of 6 | survivor count (dose: 200.0 mg/kg/injection, schedule: Q01DX001 (ip), vehicle: Klucel (hydroxypropylcellulose) (HPC)): 0 of 6 | survivor count (dose: 400.0 mg/kg/injection, schedule: Q01DX001 (ip), vehicle: Klucel (hydroxypropylcellulose) (HPC)): 1 of 6

O=C1OC(=O)C2C(c3ccccc3)C=CC(c3ccccc3)C12 (stereo unspecified)
survivor count [6]: 1 of 6

Nc1nc(N)c2cc(NCc3ccccc3Cl)ccc2n1
survivor count (dose: 18.0 mg/kg/injection, schedule: Q01DX009 (ip), vehicle: saline with Tween-80): 3 of 6 | survivor count (dose: 25.0 mg/kg/injection, schedule: Q04DX003 (ip), vehicle: saline): 5 of 6 | survivor count (dose: 28.0 mg/kg/injection, schedule: Q01DX009 (ip), vehicle: saline with Tween-80): 1 of 6 | survivor count (dose: 40.0 mg/kg/injection, schedule: Q01DX009 (ip), vehicle: saline with Tween-80): 0 of 6 | survivor count (dose: 50.0 mg/kg/injection, schedule: Q01DX001 (ip), vehicle: acetone): 0 of 6 | survivor count (dose: 100.0 mg/kg/injection, schedule: Q01DX001 (ip), vehicle: acetone): 0 of 6

CCCCCCCCC[n+]1ccc(C#N)cc1
survivor count (dose: 75.0 mg/kg/injection, schedule: Q01DX001 (ip), vehicle: other): 1 of 6 | survivor count (dose: 150.0 mg/kg/injection, schedule: Q01DX001 (ip), vehicle: other): 0 of 6 | survivor count (dose: 300.0 mg/kg/injection, schedule: Q01DX001 (ip), vehicle: other): 0 of 6

CNC(=S)C(=S)NC
survivor count (dose: 50.0 mg/kg/injection, schedule: Q04DX003 (ip), vehicle: saline with Tween-80): 5 of 6
